PubChem BioAssay AID652243 – Drosophila RNAi Screening Center | 2013

- Assay: 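Knock-downs that decrease or increase androgen receptor reporter signal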 (primary screen)
- Cells: Drosophila S2R+ cells
- Knock-down reagent: long dsRNA against Drosophila genes
- Duration: 72 h (48 h, then 24 h hormone)
- Challenge: synthetic androgen R1881 at 10 nM for 24 h
- Measurement: 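Firefly light from an androgen-responsive reporter and Renilla control light per well, raw and unnormalised, for each of two replicates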
- Scale: firefly reporter light: higher = more light from androgen-responsive reporter; Renilla control light: higher = more constitutive control signal (cell number, transfection)
- Hit rule: 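Across duplicate plates, a knock-down whose log firefly/Renilla ratio shifted a set fold down or up from the GFP/LacZ control mean was a hit; the downward cut appears as both 1.5 and 3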
- Calls: active = hit: reporter lowered or raised; inactive = no hit
The screen tested about 24,000 reagents; this is an unselected part of those with a known target gene and a result. In the full data, 246 (1%) are marked active. 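Plates not normalised; calls are printed but the firefly/Renilla ratio behind them is not deposited; fold cut for lowering reported inconsistently.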 Raw values vary from plate to plate and are shown uncorrected. The numbers tell different reagents against one gene apart. Names joined by + are all predicted targets of the reagent. Reagent sequences are not shown. Not stated in the record: the amount of reagent.

| gene | reagent no. | firefly reporter light, replicate 1 | firefly reporter light, replicate 2 | Renilla control light, replicate 1 | Renilla control light, replicate 2 | Call |
| --- | --- | --- | --- | --- | --- | --- |
| CG10055 | 1 | 91187 | 1.64e5 | 1.90e6 | 1.65e6 | inactive |
| CG11317 | 1 | 1.04e5 | 1.52e5 | 8.02e5 | 5.96e5 | inactive |
| CG18528 | 1 | 1.50e5 | 1.85e5 | 2.48e6 | 2.45e6 | inactive |
| CG2663 | 1 | 69651 | 47103 | 7.88e5 | 8.18e5 | inactive |
| CG2663 | 2 | 6.13e5 | 6.03e5 | 1.33e6 | 1.40e6 | inactive |
| btl | 1 | 2.51e5 | 1.93e5 | 1.39e6 | 1.28e6 | inactive |
| btl | 2 | 5.60e5 | 8.60e5 | 1.72e6 | 2.02e6 | inactive |
| btl | 3 | – | – | – | – | inactive |
| CG10341 | 1 | 1.28e6 | 1.03e6 | 1.50e6 | 1.61e6 | inactive |
| arr | 1 | 1.06e5 | 70632 | 1.96e6 | 1.96e6 | inactive |
| arr | 2 | 4.69e5 | 3.23e5 | 7.39e5 | 4.80e5 | inactive |
| Polr2J | 1 | 2.16e5 | 2.43e5 | 2.67e6 | 2.54e6 | inactive |
| Polr2J | 2 | 5.29e5 | 2.21e5 | 8.03e5 | 1.38e5 | inactive |
| Cap-H2 | 1 | 90044 | 1.35e5 | 6.34e5 | 6.80e5 | inactive |
| CG17440 + Cfp1 | 1 | 9.51e5 | 5.87e5 | 1.39e6 | 1.70e6 | inactive |
| Stt3B | 1 | 2.46e5 | 2.40e5 | 2.33e6 | 2.03e6 | inactive |
| Myo10A | 1 | 5.00e5 | 5.98e5 | 3.24e6 | 3.25e6 | inactive |
| Myo10A | 2 | 4.77e5 | 4.17e5 | 3.27e6 | 3.82e6 | inactive |
| Myo10A | 3 | 4.12e5 | 4.05e5 | 1.36e6 | 1.55e6 | inactive |
| Myo10A | 4 | 6.36e5 | 4.63e5 | 2.18e6 | 1.40e6 | inactive |
| Tep4 | 1 | 66124 | 1.23e5 | 8.70e5 | 1.40e6 | inactive |
| ACOX1 | 1 | 1.53e6 | 9.25e5 | 2.62e6 | 1.81e6 | inactive |
| ACOX1 | 2 | 8.10e5 | 6.04e5 | 8.91e5 | 9.47e5 | inactive |
| CG15115 | 1 | 5.04e5 | 6.28e5 | 3.59e6 | 4.44e6 | inactive |
| PHDP | 1 | 2.75e5 | 3.43e5 | 2.12e6 | 2.12e6 | inactive |
| jigr1 | 1 | 2.85e5 | 2.44e5 | 3.41e6 | 2.81e6 | inactive |
| jigr1 | 2 | 5.02e5 | 6.71e5 | 1.80e6 | 1.44e6 | inactive |
| CG10863 | 1 | 1.00e6 | 9.07e5 | 7.53e5 | 7.86e5 | inactive |
| Acadvl | 1 | 3.81e5 | 4.30e5 | 4.79e5 | 4.06e5 | inactive |
| Acadvl | 2 | 1.88e5 | 1.23e5 | 3.72e5 | 3.88e5 | inactive |
| zyd | 1 | 2.95e5 | 91187 | 6.40e5 | 4.80e5 | inactive |
| CG10417 | 1 | 7.78e5 | 7.70e5 | 2.09e6 | 2.09e6 | inactive |
| CG10417 | 2 | 2.26e5 | 2.47e5 | 4.89e5 | 7.63e5 | inactive |
| CG10417 | 3 | – | – | – | – | inactive |
| Lnk | 1 | 91772 | 1.37e5 | 4.15e5 | 6.64e5 | inactive |
| CG31698 | 1 | 5.76e5 | 6.26e5 | 1.96e6 | 1.84e6 | inactive |
| CG31698 | 2 | 3.55e5 | 6.09e5 | 9.00e5 | 1.36e6 | inactive |
| bero | 1 | 1.93e5 | 2.17e5 | 1.97e6 | 2.73e6 | inactive |
| bero | 2 | 9.46e5 | 6.09e5 | 1.01e6 | 1.34e6 | inactive |
| Tim23 | 1 | 4.95e5 | 5.66e5 | 4.10e6 | 4.00e6 | inactive |
| CG14589 | 1 | 3.05e5 | 3.23e5 | 1.76e6 | 1.98e6 | inactive |
| PGRP-LD + Cralbp + Pmi | 1 | 1.26e5 | 1.12e5 | 2.24e6 | 1.61e6 | inactive |
| CG5800 | 1 | 5.71e5 | 6.39e5 | 2.92e6 | 3.05e6 | inactive |
| CG5800 | 2 | 5.53e5 | 4.07e5 | 2.19e6 | 1.31e6 | inactive |
| Cnep1r1 | 1 | 8.33e5 | 9.72e5 | 1.68e6 | 1.79e6 | inactive |
| CG13689 | 1 | 2.68e5 | 1.85e5 | 8.90e5 | 6.72e5 | inactive |
| sncRNA:430e + His2A:CG33859 + His2A:CG33817 + 42 more | 1 | 5.02e5 | 6.10e5 | 1.23e5 | 1.52e5 | inactive |
| Obp18a | 1 | 2.35e5 | 1.66e5 | 8.94e5 | 5.95e5 | inactive |
| Kat60 | 1 | 27647 | 53147 | 8.75e5 | 7.60e5 | inactive |
| cathD | 1 | 1.97e5 | 2.03e5 | 1.86e6 | 1.37e6 | inactive |
| TwdlH | 1 | 3.23e5 | 2.47e5 | 3.22e6 | 2.06e6 | inactive |
| l(2)k05819 | 1 | 1.10e6 | 1.15e6 | 3.03e6 | 2.58e6 | inactive |
| nAChRalpha2 | 1 | 84480 | 1.14e5 | 3.20e5 | 3.15e5 | inactive |
| nAChRalpha2 | 2 | 7.88e5 | 5.18e5 | 4.10e5 | 3.31e5 | inactive |
| ppk12 | 1 | 2.21e5 | 2.25e5 | 1.19e6 | 1.13e6 | inactive |
| Ak6 | 1 | 4.93e5 | 3.57e5 | 1.51e6 | 1.69e6 | inactive |
| CG9863 | 1 | 3.23e5 | 7.00e5 | 6.66e5 | 1.40e6 | inactive |
| vir | 1 | 1.25e5 | 1.31e5 | 1.02e6 | 9.13e5 | inactive |
| vir | 2 | 2.03e5 | 1.69e5 | 4.48e5 | 4.34e5 | inactive |

Records listed so far whose gene name begins with N or n (2):
| gene | reagent no. | firefly reporter light, replicate 1 | firefly reporter light, replicate 2 | Renilla control light, replicate 1 | Renilla control light, replicate 2 | Call |
| --- | --- | --- | --- | --- | --- | --- |
| nAChRalpha2 | 1 | 84480 | 1.14e5 | 3.20e5 | 3.15e5 | inactive |
| nAChRalpha2 | 2 | 7.88e5 | 5.18e5 | 4.10e5 | 3.31e5 | inactive |
